Measurements: patent US20240342156A1, “METHODS FOR TREATING PAIN” (Xenon Pharmaceuticals Inc., priority 2019, published 2024)
At least one compound was matched to its structure with a doubt left.

System: rat spinal nerve ligation (SNL)/Chung model of neuropathic pain
Experiment: Spinal nerve ligation (SNL)/Chung model, tactile allodynia, electronic von Frey test on lesioned paw
Type: in vivo
Details: Day 14 and Day 18; compared to morphine
Description: Objective: The efficacy of Compound A was assessed using the rat spinal nerve ligation (SNL)/Chung model of neuropathic pain. The SNL model in rats was developed as described previously (Chung J M, Kim H K, Chung K. “Segmental spinal nerve ligation model of neuropathic pain.” Methods Mol. Med. 99 (2004) 35-45).
Study Design. Briefly, on Day 0, von Frey and cold plate tests were used for baseline measurements of tactile and cold allodynia respectively. Post-baseline measurements, rats (171-209 g male Sprague Dawley) were anesthetized and an incision at the L4-S2 level was performed to expose the left L5 nerve. […] On Day 13, post-surgery baselines for tactile and cold allodynia were measured to verify neuropathic pain. […]
Rats were placed under an inverted acrylic plastic box on a grid floor. The tip of an electronic von Frey probe was then applied with increasing force to the surgery hind paw and the force required to induce paw-withdrawal was automatically recorded. The procedure was carried out 3 times and the mean paw withdrawal force was calculated. […]

With `CCOC(=O)Nc1ccc(NCc2ccc(F)cc2)cc1N` [Retigabine, reference compound] the “effect on the tactile allodynia endpoint” value was “neither Compound A nor retigabine had much effect”.
